Assay results: PMC5725448
Results are given in words; binding and its absence hold for the method and conditions named. Binding seen in cells or lysates may run through a third protein. Here binding means that the protein was enriched with, or labelled near, the bait; the list need not be complete. For some assays here: Where a sequence is shown, tags or fusion partners need not be part of it.

Sequences of proteins named here, by UniProt entry; tags and fusion partners are left off.
UniProt Q92973: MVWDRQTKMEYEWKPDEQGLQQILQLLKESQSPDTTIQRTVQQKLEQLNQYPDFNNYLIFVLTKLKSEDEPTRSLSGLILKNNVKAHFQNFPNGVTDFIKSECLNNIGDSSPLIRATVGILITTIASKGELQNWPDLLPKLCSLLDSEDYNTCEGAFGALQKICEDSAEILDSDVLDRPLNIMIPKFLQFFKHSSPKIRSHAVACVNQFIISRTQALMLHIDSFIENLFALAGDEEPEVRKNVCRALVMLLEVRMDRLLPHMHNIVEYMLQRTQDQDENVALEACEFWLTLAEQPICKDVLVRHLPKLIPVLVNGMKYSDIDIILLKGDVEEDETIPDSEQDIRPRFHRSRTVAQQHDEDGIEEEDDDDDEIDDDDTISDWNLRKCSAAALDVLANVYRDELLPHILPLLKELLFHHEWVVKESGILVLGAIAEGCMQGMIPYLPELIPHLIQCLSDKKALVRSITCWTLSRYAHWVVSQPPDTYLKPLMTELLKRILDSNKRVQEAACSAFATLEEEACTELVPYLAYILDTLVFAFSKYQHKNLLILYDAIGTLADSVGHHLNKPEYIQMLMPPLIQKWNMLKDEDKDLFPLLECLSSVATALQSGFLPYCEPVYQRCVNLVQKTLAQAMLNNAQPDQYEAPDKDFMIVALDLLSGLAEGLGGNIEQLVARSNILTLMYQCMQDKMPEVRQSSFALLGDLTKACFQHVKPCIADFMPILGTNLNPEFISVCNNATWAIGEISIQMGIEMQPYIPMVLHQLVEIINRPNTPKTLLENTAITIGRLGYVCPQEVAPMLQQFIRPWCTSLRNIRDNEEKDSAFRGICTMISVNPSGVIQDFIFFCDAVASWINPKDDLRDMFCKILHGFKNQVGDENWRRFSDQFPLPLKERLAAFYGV
UniProt P42338: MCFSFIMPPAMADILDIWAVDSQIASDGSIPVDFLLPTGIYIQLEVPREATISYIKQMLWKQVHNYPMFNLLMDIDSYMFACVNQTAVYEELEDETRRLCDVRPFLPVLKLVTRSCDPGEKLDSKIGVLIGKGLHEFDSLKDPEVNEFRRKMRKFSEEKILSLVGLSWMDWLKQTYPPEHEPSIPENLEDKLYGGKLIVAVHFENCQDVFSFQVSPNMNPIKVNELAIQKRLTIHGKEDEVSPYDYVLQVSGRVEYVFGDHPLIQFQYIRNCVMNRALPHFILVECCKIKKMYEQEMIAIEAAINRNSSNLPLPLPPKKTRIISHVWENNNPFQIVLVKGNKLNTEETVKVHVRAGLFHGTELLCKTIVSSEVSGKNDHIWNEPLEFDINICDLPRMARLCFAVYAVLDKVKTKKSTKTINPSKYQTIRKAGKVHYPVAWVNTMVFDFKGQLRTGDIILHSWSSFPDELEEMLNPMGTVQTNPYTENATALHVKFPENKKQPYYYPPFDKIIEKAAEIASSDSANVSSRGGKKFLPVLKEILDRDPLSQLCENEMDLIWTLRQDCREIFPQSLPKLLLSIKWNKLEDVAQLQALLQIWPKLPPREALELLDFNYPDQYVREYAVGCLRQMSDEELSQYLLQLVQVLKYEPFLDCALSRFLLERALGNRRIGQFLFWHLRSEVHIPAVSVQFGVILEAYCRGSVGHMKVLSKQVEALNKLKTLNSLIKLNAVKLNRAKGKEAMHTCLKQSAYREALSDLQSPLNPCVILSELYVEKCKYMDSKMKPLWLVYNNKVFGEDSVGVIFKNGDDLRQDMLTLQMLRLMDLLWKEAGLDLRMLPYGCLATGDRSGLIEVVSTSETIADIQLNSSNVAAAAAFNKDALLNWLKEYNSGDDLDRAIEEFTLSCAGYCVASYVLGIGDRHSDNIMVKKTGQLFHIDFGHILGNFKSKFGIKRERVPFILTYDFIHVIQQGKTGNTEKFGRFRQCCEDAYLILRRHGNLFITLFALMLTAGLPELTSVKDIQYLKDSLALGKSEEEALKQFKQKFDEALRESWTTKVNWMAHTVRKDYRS

T1: RanBP6-V5 (doxycycline-inducible V5-tagged RanBP6) (human) (UniProt O60518)
T1 sequence: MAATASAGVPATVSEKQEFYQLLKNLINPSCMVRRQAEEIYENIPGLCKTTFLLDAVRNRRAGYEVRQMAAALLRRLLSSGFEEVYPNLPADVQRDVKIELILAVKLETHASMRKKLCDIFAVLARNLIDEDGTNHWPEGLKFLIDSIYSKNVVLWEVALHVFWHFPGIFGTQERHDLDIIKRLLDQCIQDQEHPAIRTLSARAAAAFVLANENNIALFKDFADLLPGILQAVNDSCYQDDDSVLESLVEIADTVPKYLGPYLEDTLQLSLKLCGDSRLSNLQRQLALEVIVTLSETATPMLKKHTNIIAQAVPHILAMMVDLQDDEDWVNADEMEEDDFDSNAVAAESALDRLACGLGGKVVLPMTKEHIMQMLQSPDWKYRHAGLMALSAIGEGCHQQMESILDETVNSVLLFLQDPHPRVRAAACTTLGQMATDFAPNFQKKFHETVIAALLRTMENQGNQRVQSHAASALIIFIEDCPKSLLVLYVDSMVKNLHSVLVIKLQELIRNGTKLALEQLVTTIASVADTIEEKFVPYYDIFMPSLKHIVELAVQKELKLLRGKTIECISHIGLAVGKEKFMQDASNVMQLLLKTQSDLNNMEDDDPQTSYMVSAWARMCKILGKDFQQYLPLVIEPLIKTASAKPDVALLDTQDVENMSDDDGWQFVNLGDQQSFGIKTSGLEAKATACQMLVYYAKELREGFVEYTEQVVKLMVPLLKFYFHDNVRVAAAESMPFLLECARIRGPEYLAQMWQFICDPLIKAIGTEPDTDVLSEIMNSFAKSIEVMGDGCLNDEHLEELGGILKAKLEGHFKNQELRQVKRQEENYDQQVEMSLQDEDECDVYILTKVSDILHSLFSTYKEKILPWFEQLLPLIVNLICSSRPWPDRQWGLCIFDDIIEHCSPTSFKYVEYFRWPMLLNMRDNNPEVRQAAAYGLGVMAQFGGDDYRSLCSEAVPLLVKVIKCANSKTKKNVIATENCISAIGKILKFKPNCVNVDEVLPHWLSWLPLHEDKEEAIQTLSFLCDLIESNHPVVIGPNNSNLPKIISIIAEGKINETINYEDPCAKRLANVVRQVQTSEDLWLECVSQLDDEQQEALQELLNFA


Key:
[1] = target: T1, RanBP6-V5 (doxycycline-inducible V5-tagged RanBP6) (human); experiment: affinity purification with mass spectrometry; RanBP6-V5 purified on anti-V5 agarose affinity gel overnight from lysates of serum-starved A431 Dox-inducible RanBP6-V5 cells, eluted with V5 peptide; LC-MS/MS; four replicates; control A431 parental cells
[2] = target: epidermal growth factor receptor (EGFR) (human (endogenous in A431, HEK-293T, LN18)) (UniProt P00533); experiment: affinity purification with mass spectrometry; endogenous EGFR immunopurified with Cetuximab on magnetic protein G Dynabeads from lysates of A431 cells serum starved and stimulated with EGF (100 ng/ml) for 5 min; 2 h 30 min at 4 °C; LC-MS/MS; three replicates; control mouse IgG

Molecule	binding [1]	binding [2]
Sec61α1 (from UniProt P61619 1-476)	binds	binds
transportin-1 (from UniProt Q92973 1-898)		binds
nuclear pore complex protein Nup93 (protein, UniProt Q8N1F7 1-819) MDTEGFGELLQQAEQLAAETEGISELPHVERNLQEIQQAGERLRSRTLTRTSQETADVKASVLLGSRGLDISHISQRLESLSAATTFEPLEPVKDTDIQGFLKNEKDNALLSAIEESRKRTFGMAEEYHRESMLVEWEQVKQRILHTLLASGEDALDFTQESEPSYISDVGPPGRSSLDNIEMAYARQIYIYNEKIVNGHLQPNLVDLCASVAELDDKSISDMWTMVKQMTDVLLTPATDALKNRSSVEVRMEFVRQALAYLEQSYKNYTLVTVFGNLHQAQLGGVPGTYQLVRSFLNIKLPAPLPGLQDGEVEGHPVWALIYYCMRCGDLLAASQVVNRAQHQLGEFKTWFQEYMNSKDRRLSPATENKLRLHYRRALRNNTDPYKRAVYCIIGRCDVTDNQSEVADKTEDYLWLKLNQVCFDDDGTSSPQDRLTLSQFQKQLLEDYGESHFTVNQQPFLYFQVLFLTAQFEAAVAFLFRMERLRCHAVHVALVLFELKLLLKSSGQSAQLLSHEPGDPPCLRRLNFVRLLMLYTRKFESTDPREALQYFYFLRDEKDSQGENMFLRCVSELVIESREFDMILGKLENDGSRKPGVIDKFTSDTKPIINKVASVAENKGLFEEAAKLYDLAKNADKVLELMNKLLSPVVPQISAPQSNKERLKNMALSIAERYRAQGISANKFVDSTFYLLLDLITFFDEYHSGHIDRAFDIIERLKLVPLNQESVEERVAAFRNFSDEIRHNLSEVLLATMNILFTQFKRLKGTSPSSSSRPQRVIEDRDSQLRSQARTLITFAGMIPYRTSGDTNARLVQMEVLMN	binds	binds
Ran-binding protein 6 (RanBP6), endogenous (protein, UniProt O60518 1-1105) MAATASAGVPATVSEKQEFYQLLKNLINPSCMVRRQAEEIYENIPGLCKTTFLLDAVRNRRAGYEVRQMAAALLRRLLSSGFEEVYPNLPADVQRDVKIELILAVKLETHASMRKKLCDIFAVLARNLIDEDGTNHWPEGLKFLIDSIYSKNVVLWEVALHVFWHFPGIFGTQERHDLDIIKRLLDQCIQDQEHPAIRTLSARAAAAFVLANENNIALFKDFADLLPGILQAVNDSCYQDDDSVLESLVEIADTVPKYLGPYLEDTLQLSLKLCGDSRLSNLQRQLALEVIVTLSETATPMLKKHTNIIAQAVPHILAMMVDLQDDEDWVNADEMEEDDFDSNAVAAESALDRLACGLGGKVVLPMTKEHIMQMLQSPDWKYRHAGLMALSAIGEGCHQQMESILDETVNSVLLFLQDPHPRVRAAACTTLGQMATDFAPNFQKKFHETVIAALLRTMENQGNQRVQSHAASALIIFIEDCPKSLLVLYVDSMVKNLHSVLVIKLQELIRNGTKLALEQLVTTIASVADTIEEKFVPYYDIFMPSLKHIVELAVQKELKLLRGKTIECISHIGLAVGKEKFMQDASNVMQLLLKTQSDLNNMEDDDPQTSYMVSAWARMCKILGKDFQQYLPLVIEPLIKTASAKPDVALLDTQDVENMSDDDGWQFVNLGDQQSFGIKTSGLEAKATACQMLVYYAKELREGFVEYTEQVVKLMVPLLKFYFHDNVRVAAAESMPFLLECARIRGPEYLAQMWQFICDPLIKAIGTEPDTDVLSEIMNSFAKSIEVMGDGCLNDEHLEELGGILKAKLEGHFKNQELRQVKRQEENYDQQVEMSLQDEDECDVYILTKVSDILHSLFSTYKEKILPWFEQLLPLIVNLICSSRPWPDRQWGLCIFDDIIEHCSPTSFKYVEYFRWPMLLNMRDNNPEVRQAAAYGLGVMAQFGGDDYRSLCSEAVPLLVKVIKCANSKTKKNVIATENCISAIGKILKFKPNCVNVDEVLPHWLSWLPLHEDKEEAIQTLSFLCDLIESNHPVVIGPNNSNLPKIISIIAEGKINETINYEDPCAKRLANVVRQVQTSEDLWLECVSQLDDEQQEALQELLNFA		binds

More lines, now with the values ahead:

binding [1]	binding [2]	Molecule
binds	binds	exportin-1 (XPO1/CRM1) (from UniProt O14980 1-1071)
binds		epidermal growth factor receptor (EGFR) (from UniProt P00533 25-1210)
	binds	importin subunit β-1 (from UniProt Q14974 1-876)
	binds	phosphatidylinositol 4,5-bisphosphate 3-kinase catalytic subunit β isoform (PIK3CB) (from UniProt P42338 1-1070) (enzyme)
	binds	transportin-2 (protein, UniProt O14787 1-897) MDWQPDEQGLQQVLQLLKDSQSPNTATQRIVQDKLKQLNQFPDFNNYLIFVLTRLKSEDEPTRSLSGLILKNNVKAHYQSFPPPVADFIKQECLNNIGDASSLIRATIGILITTIASKGELQMWPELLPQLCNLLNSEDYNTCEGAFGALQKICEDSSELLDSDALNRPLNIMIPKFLQFFKHCSPKIRSHAIACVNQFIMDRAQALMDNIDTFIEHLFALAVDDDPEVRKNVCRALVMLLEVRIDRLIPHMHSIIQYMLQRTQDHDENVALEACEFWLTLAEQPICKEVLASHLVQLIPILVNGMKYSEIDIILLKGDVEEDEAVPDSEQDIKPRFHKSRTVTLPHEAERPDGSEDAEDDDDDDALSDWNLRKCSAAALDVLANVFREELLPHLLPLLKGLLFHPEWVVKESGILVLGAIAEGCMQGMVPYLPELIPHLIQCLSDKKALVRSIACWTLSRYAHWVVSQPPDMHLKPLMTELLKRILDGNKRVQEAACSAFATLEEEACTELVPYLSYILDTLVFAFGKYQHKNLLILYDAIGTLADSVGHHLNQPEYIQKLMPPLIQKWNELKDEDKDLFPLLECLSSVATALQSGFLPYCEPVYQRCVTLVQKTLAQAMMYTQHPEQYEAPDKDFMIVALDLLSGLAEGLGGHVEQLVARSNIMTLLFQCMQDSMPEVRQSSFALLGDLTKACFIHVKPCIAEFMPILGTNLNPEFISVCNNATWAIGEICMQMGAEMQPYVQMVLNNLVEIINRPNTPKTLLENTGRLTSPSAIPAITIGRLGYVCPQEVAPMLQQFIRPWCTSLRNIRDNEEKDSAFRGICMMIGVNPGGVVQDFIFFCDAVASWVSPKDDLRDMFYKILHGFKDQVGEDNWQQFSEQFPPLLKERLAAFYGV
binds	binds	signal sequence receptor subunit α (protein, UniProt P43307 19-286) VLFRGGPRGLLAVAQDLTEDEETVEDSIIEDEDDEAEVEEDEPTDLVEDKEEEDVSGEPEASPSADTTILFVKGEDFPANNIVKFLVGFTNKGTEDFIVESLDASFRYPQDYQFYIQNFTALPLNTVVPPQRQATFEYSFIPAEPMGGRPFGLVINLNYKDLNGNVFQDAVFNQTVTVIEREDGLDGETIFMYMFLAGLGLLVIVGLHQLLESRKRKRPIQKVEMGTSSQNDVDMSWIPQETLNQINKASPRRLPRKRAQKRSVGSDE
